{"source": "PubChem BioAssay AID720505 (Drosophila RNAi Screening Center, 2013)", "screen": "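Knock-downs that reduce calcium influx once internal stores are emptied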 (primary screen)", "system": "Drosophila S2R+ cells", "reagents": "long dsRNA against Drosophila genes", "challenge": "thapsigargin (2 µM) in calcium-free buffer to empty internal stores, then 2 mM calcium added back", "detection": "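Fluo-4 signal in 384-well plates read on a FLIPR after thapsigargin (2 µM, calcium-free) store depletion and 2 mM calcium add-back; unnormalised mean endpoint per well; screen run twice, selected wells retested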", "direction": "calcium signal: higher = more calcium entry after store depletion", "active means": "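Knock-downs counted as hits when calcium entry dropped relative to STIM1 positive and Rho1 negative controls present on each plate; roughly 1500 genes called, with reductions of differing size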", "calls": "active = called as lowering calcium entry; inactive = not called", "note": "The screen tested about 20,000 reagents; this is a random part of those with a known target gene and a result. Of all reagents, about 2,100 (10%) are marked active. 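Raw plate signals without normalisation; calls rest on control-based scores that were not deposited; replicate 2 separates called from uncalled poorly.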 No sequences are given here. The record does not give: the amount of reagent, the time to read-out."}
The opening 2 records as a preview:
{"gene": "Sry-delta (Serendipity delta)", "amplicon": "DRSC16869", "calcium signal, replicate 1": 101, "calcium signal, replicate 2": 117, "Call": "inactive"}
{"gene": "eIF3h (eukaryotic translation initiation factor 3 subunit h)", "amplicon": "DRSC01995", "calcium signal, replicate 1": 88.9, "calcium signal, replicate 2": 167, "Call": "inactive"}

Main list, repeating the preview:
{"gene": "Sry-delta (Serendipity delta)", "amplicon": "DRSC16869", "calcium signal, replicate 1": 101, "calcium signal, replicate 2": 117, "Call": "inactive"}
{"gene": "eIF3h (eukaryotic translation initiation factor 3 subunit h)", "amplicon": "DRSC01995", "calcium signal, replicate 1": 88.9, "calcium signal, replicate 2": 167, "Call": "inactive"}
{"gene": "Letm1", "amplicon": "DRSC04476", "calcium signal, replicate 1": 108, "calcium signal, replicate 2": 91.9, "Call": "inactive"}
{"gene": "CG7548", "amplicon": "DRSC10874", "calcium signal, replicate 1": 135, "calcium signal, replicate 2": 104, "Call": "inactive"}
{"gene": "CG14756", "amplicon": "DRSC06491", "calcium signal, replicate 1": 131, "calcium signal, replicate 2": 198, "Call": "inactive"}
{"gene": "CG16837", "amplicon": "DRSC04283", "calcium signal, replicate 1": 171, "calcium signal, replicate 2": 171, "Call": "inactive"}
{"gene": "rdgBbeta", "amplicon": "DRSC07672", "calcium signal, replicate 1": 170, "calcium signal, replicate 2": 164, "Call": "inactive"}
{"gene": "Hph (HIF prolyl hydroxylase)", "amplicon": "DRSC12164", "calcium signal, replicate 1": 88.8, "calcium signal, replicate 2": 142, "Call": "inactive"}
{"gene": "Hph (HIF prolyl hydroxylase)", "amplicon": "DRSC12251", "calcium signal, replicate 1": 103, "calcium signal, replicate 2": 76.6, "Call": "inactive"}
{"gene": "Hph (HIF prolyl hydroxylase)", "amplicon": "DRSC21876", "calcium signal, replicate 1": 79.6, "calcium signal, replicate 2": 153, "Call": "inactive"}
{"gene": "CG32006", "amplicon": "DRSC21768", "calcium signal, replicate 1": 178, "calcium signal, replicate 2": 86.1, "Call": "inactive"}
{"gene": "Cdep (Chondrocyte-derived ezrin-like domain containing protein)", "amplicon": "DRSC12028", "Call": "inactive"}
{"gene": "Cdep (Chondrocyte-derived ezrin-like domain containing protein)", "amplicon": "DRSC12220", "calcium signal, replicate 1": 108, "calcium signal, replicate 2": 109, "Call": "inactive"}
{"gene": "Cdep (Chondrocyte-derived ezrin-like domain containing protein)", "amplicon": "DRSC12291", "calcium signal, replicate 1": 111, "calcium signal, replicate 2": 110, "Call": "inactive"}
{"gene": "Rap1 (Rap1 GTPase)", "amplicon": "DRSC08686", "calcium signal, replicate 1": 159, "calcium signal, replicate 2": 78.3, "Call": "inactive"}
{"gene": "CG30369", "amplicon": "DRSC21996", "calcium signal, replicate 1": 109, "calcium signal, replicate 2": 164, "Call": "inactive"}
{"gene": "Mic26-27 (MICOS subunit 26/27)", "amplicon": "DRSC15913", "calcium signal, replicate 1": 146, "calcium signal, replicate 2": 235, "Call": "inactive"}
{"gene": "CG4666", "amplicon": "DRSC18379", "calcium signal, replicate 1": 216, "calcium signal, replicate 2": 84, "Call": "inactive"}
{"gene": "trio", "amplicon": "DRSC08527", "calcium signal, replicate 1": 86.4, "calcium signal, replicate 2": 88.8, "Call": "inactive"}
{"gene": "trio", "amplicon": "DRSC08740", "calcium signal, replicate 1": 85.8, "calcium signal, replicate 2": 96.9, "Call": "inactive"}
